In publication PMC5905272:
No constants are given. Whether binding was seen depends on the method and setting. Some binding calls cover weakened binding; strength is not graded here.

Biological target: full-length human KIAA0319 (human) (UniProt Q5VV43)
Assay: SDS-PAGE and western blot; lysates of CAD cells overexpressing hKA, 12% SDS-PAGE under denaturing conditions, blot with R2 antiserum; band at ~300 kDa read as dimer

B1: full-length human KIAA0319 (protein, UniProt Q5VV43 21-1072)
chain: ARKQCSEGRTYSNAVISPNLETTRIMRVSHTFPVVDCTAACCDLSSCDLAWWFEGRCYLVSCPHKENCEPKKMGPIRSYLTFVLRPVQRPAQLLDYGDMMLNRGSPSGIWGDSPEDIRKDLTFLGKDWGLEEMSEYSDDYRELEKDLLQPSGKQEPRGSAEYTDWGLLPGSEGAFNSSVGDSPAVPAETQQDPELHYLNESASTPAPKLPERSVLLPLPTTPSSGEVLEKEKASQLQEQSSNSSGKEVLMPSHSLPPASLELSSVTVEKSPVLTVTPGSTEHSIPTPPTSAAPSESTPSELPISPTTAPRTVKELTVSAGDNLIITLPDNEVELKAFVAPAPPVETTYNYEWNLISHPTDYQGEIKQGHKQTLNLSQLSVGLYVFKVTVSSENAFGEGFVNVTVKPARRVNLPPVAVVSPQLQELTLPLTSALIDGSQSTDDTEIVSYHWEEINGPFIEEKTSVDSPVLRLSNLDPGNYSFRLTVTDSDGATNSTTAALIVNNAVDYPPVANAGPNHTITLPQNSITLNGNQSSDDHQIVLYEWSLGPGSEGKHVVMQGVQTPYLHLSAMQEGDYTFQLKVTDSSRQQSTAVVTVIVQPENNRPPVAVAGPDKELIFPVESATLDGSSSSDDHGIVFYHWEHVRGPSAVEMENIDKAIATVTGLQVGTYHFRLTVKDQQGLSSTSTLTVAVKKENNSPPRARAGGRHVLVLPNNSITLDGSRSTDDQRIVSYLWIRDGQSPAAGDVIDGSDHSVALQLTNLVEGVYTFHLRVTDSQGASDTDTATVEVQPDPRKSGLVELTLQVGVGQLTEQRKDTLVRQLAVLLNVLDSDIKVQKIRAHSDLSTVIVFYVQSRPPFKVLKAAEVARNLHMRLSKEKADFLLFKVLRVDTAGCLLKCSGHGHCDPLTKRCICSHLWMENLIQRYIWDGESNCEWSIFYVTVLAFTLIVLTGGFTWLCICCCKRQKRTKIRKKTKYTILDNMDEQERMELRPKYGIKHRSTEHNSSLMVSESEFDSDQDTIFSREKMERGNPKVSMNGSIRNGASFSYCSKDR
binding: binds
